Data reported in the supplement of paper PMC8728848.
The list shows a part of the results.

How the values were obtained:
Assay in all cases: glycan array binding signal (z-score within array); higher = stronger binding
Settings in all cases: glycan notation: IUPAC condensed, linker removed
[1] = molecular target: GlcNAc(b1-3)Gal(b1-4)GlcNAc(b1-3)Gal(b1-4)GlcNAc(b1-3)GalNAc
Method in brief: (§1)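 Glycan array data came from 3228 arrays in the Consortium for Functional Glycomics database, and only arrays with an available protein sequence were kept. Glycan names were put into IUPAC-condensed notation, and columns mapping to the same glycan were averaged. The binding signal is a within-array Z-score, averaged across arrays of one protein sequence run at different concentrations or buffers and across linkers. A negative Z-score can be read as non-binding.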

[2] = molecular target: GlcNAc(b1-3)Gal(b1-4)GlcNAc(b1-3)GalNAc
Method in brief: as §1

[3] = molecular target: GlcNAc(b1-3)Gal(b1-4)GlcNAc(b1-3)[GlcNAc(b1-3)Gal(b1-4)GlcNAc(b1-3)]GalNAc
Method in brief: as §1

[4] = molecular target: GlcNAc(b1-3)Gal(b1-4)GlcNAc(b1-6)[Gal(b1-3)]GalNAc
Method in brief: as §1

[5] = molecular target: GlcNAc(b1-3)Gal(b1-4)GlcNAc(b1-6)[GlcNAc(b1-3)Gal(b1-3)]GalNAc
Method in brief: as §1

[6] = molecular target: GlcNAc(b1-3)Gal(b1-4)GlcNAc(b1-6)[GlcNAc(b1-3)]Gal(b1-4)GlcNAc
Method in brief: as §1

GlcNAc(b1-3)GalNAc = molecular target: GlcNAc(b1-3)GalNAc
Method in brief: as §1

GlcNAc(b1-3)Man = molecular target: GlcNAc(b1-3)Man
Method in brief: as §1

[7] = molecular target: GlcNAc(b1-3)[GlcNAc(b1-4)][GlcNAc(b1-6)]GlcNAc
Method in brief: as §1

[8] = molecular target: GlcNAc(b1-3)[GlcNAc(b1-6)]Gal(b1-4)GlcNAc
Method in brief: as §1

[9] = molecular target: GlcNAc(b1-3)[GlcNAc(b1-6)]GalNAc
Method in brief: as §1

[10] = molecular target: GlcNAc(b1-4)Gal(b1-4)GlcNAc
Method in brief: as §1

GlcNAc(b1-4)GlcNAc = molecular target: GlcNAc(b1-4)GlcNAc
Method in brief: as §1

[11] = molecular target: GlcNAc(b1-4)GlcNAc(b1-4)GlcNAc
Method in brief: as §1

[12] = molecular target: GlcNAc(b1-4)GlcNAc(b1-4)GlcNAc(b1-4)GlcNAc(b1-4)GlcNAc
Method in brief: as §1

[13] = molecular target: GlcNAc(b1-4)GlcNAc(b1-4)GlcNAc(b1-4)GlcNAc(b1-4)GlcNAc(b1-4)GlcNAc
Method in brief: as §1

[14] = molecular target: GlcNAc(b1-4)[GlcNAc(b1-6)]GalNAc
Method in brief: as §1

[15] = molecular target: GlcNAc(b1-6)Gal(b1-4)GlcNAc
Method in brief: as §1

GlcNAc(b1-6)GalNAc = molecular target: GlcNAc(b1-6)GalNAc
Method in brief: as §1

[16] = molecular target: GlcNAc6S(b1-3)Gal(b1-4)GlcNAc
Method in brief: as §1

Kdn(a2-3)Gal(b1-3)GalNAc = molecular target: Kdn(a2-3)Gal(b1-3)GalNAc
Method in brief: as §1

Kdn(a2-3)Gal(b1-3)GlcNAc = molecular target: Kdn(a2-3)Gal(b1-3)GlcNAc
Method in brief: as §1

Kdn(a2-3)Gal(b1-4)Glc = molecular target: Kdn(a2-3)Gal(b1-4)Glc
Method in brief: as §1

Kdn(a2-3)Gal(b1-4)GlcNAc = molecular target: Kdn(a2-3)Gal(b1-4)GlcNAc
Method in brief: as §1

[17] = molecular target: Kdn(a2-3)Gal(b1-4)[Fuc(a1-3)]GlcNAc
Method in brief: as §1

Kdn(a2-6)Gal(b1-4)GlcNAc = molecular target: Kdn(a2-6)Gal(b1-4)GlcNAc
Method in brief: as §1

[18] = molecular target: Man(a1-2)Man(a1-2)Man(a1-3)Man
Method in brief: as §1

[19] = molecular target: Man(a1-2)Man(a1-2)Man(a1-6)[Man(a1-3)]Man
Method in brief: as §1

Man(a1-2)Man(a1-3)Man = molecular target: Man(a1-2)Man(a1-3)Man
Method in brief: as §1

[20] = molecular target: Man(a1-2)Man(a1-3)[Man(a1-2)Man(a1-6)]Man
Method in brief: as §1

[21] = molecular target: Man(a1-2)Man(a1-3)[Man(a1-2)Man(a1-6)]Man(a1-6)[Man(a1-2)Man(a1-2)Man(a1-3)]Man
Method in brief: as §1

[22] = molecular target: Man(a1-2)Man(a1-3)[Man(a1-2)Man(a1-6)]Man(a1-6)[Man(a1-2)Man(a1-2)Man(a1-3)]Man(b1-4)GlcNAc(b1-4)GlcNAc
Method in brief: as §1

[23] = molecular target: Man(a1-2)Man(a1-3)[Man(a1-6)]Man(a1-6)[Man(a1-2)Man(a1-3)]Man(b1-4)GlcNAc(b1-4)GlcNAc
Method in brief: as §1

[24] = molecular target: Man(a1-2)Man(a1-6)[Man(a1-3)]Man(a1-6)[Man(a1-2)Man(a1-2)Man(a1-3)]Man
Method in brief: as §1

[25] = molecular target: Man(a1-2)Man(a1-6)[Man(a1-3)]Man(a1-6)[Man(a1-2)Man(a1-2)Man(a1-3)]Man(b1-4)GlcNAc(b1-4)GlcNAc
Method in brief: as §1

Man(a1-3)[Man(a1-6)]Man = molecular target: Man(a1-3)[Man(a1-6)]Man
Method in brief: as §1

[26] = molecular target: Man(a1-3)[Man(a1-6)]Man(a1-6)[Man(a1-2)Man(a1-3)]Man(b1-4)GlcNAc(b1-4)GlcNAc
Method in brief: as §1

B1: Gs78B-bfa-542-29-542 (Bacteroides fragilis) (protein)
chain: SEDINRNPLLPTKEDEKMDGVIYGAYLPNLEKSVIPIGTASESTEPVNRYQIGVNLAGDAWAGYMSPRDNKFNGSKNFTNYFMYENWVNYVYSFMVTDVYSPWMQIKRISQDEGTRNDEIYALAQIIKIAALHRTTDMFGPIPYSQVGKGSFKVAYDSQESVYRSFLKELEEAVQTLDDYSNKSKEVLPAFDIVYNGDVNKWMRFANSLMLRLAIRVRFADAGLAKEYAEKAVKHPAGLINSKELAAQMGKGAGLQMKNPLKVINEEYNDTRMGATIYSYLAGYNDARAAVYFVKNNGFKAVRCGIAKSGDAYNGFTRPNVHEDDPLYWMKASEVCFLKAEGALAGFDMGGSAGDFYNAGIRMSFSENGLDNSSAETYLKDSTRKPANYTDTSNGELSANAPSSITIRWENGATEEEKLERIITQKYLAIFPNGQEAWTEWRRTGYPRQIVVAENKTNSAVLIGNGYDLGGVRRLPYPRTEYEQNGENLHNAISQYLGGVDNAATKVWWDKKSK
glycan array binding signal (z-score) [1]: -0.855
glycan array binding signal (z-score) [2]: -0.156
glycan array binding signal (z-score) [3]: -0.098
glycan array binding signal (z-score) [4]: 0.651
glycan array binding signal (z-score) [5]: -0.669
glycan array binding signal (z-score) [6]: -0.815
glycan array binding signal (z-score) (GlcNAc(b1-3)GalNAc): -0.762
glycan array binding signal (z-score) (GlcNAc(b1-3)Man): -0.383
glycan array binding signal (z-score) [7]: -0.664
glycan array binding signal (z-score) [8]: -0.833
glycan array binding signal (z-score) [9]: -0.806
glycan array binding signal (z-score) [10]: -0.828
glycan array binding signal (z-score) (GlcNAc(b1-4)GlcNAc): -0.751
glycan array binding signal (z-score) [11]: -0.801
glycan array binding signal (z-score) [12]: -0.841
glycan array binding signal (z-score) [13]: -0.83
glycan array binding signal (z-score) [14]: -0.795
glycan array binding signal (z-score) [15]: 0.621
glycan array binding signal (z-score) (GlcNAc(b1-6)GalNAc): -0.233
glycan array binding signal (z-score) [16]: 1.83
glycan array binding signal (z-score) (Kdn(a2-3)Gal(b1-3)GalNAc): 0.54
glycan array binding signal (z-score) (Kdn(a2-3)Gal(b1-3)GlcNAc): -0.533
glycan array binding signal (z-score) (Kdn(a2-3)Gal(b1-4)Glc): -0.596
glycan array binding signal (z-score) (Kdn(a2-3)Gal(b1-4)GlcNAc): 2.84
glycan array binding signal (z-score) [17]: 2.32
glycan array binding signal (z-score) (Kdn(a2-6)Gal(b1-4)GlcNAc): -0.582
glycan array binding signal (z-score) [18]: -0.825
glycan array binding signal (z-score) [19]: -0.856
glycan array binding signal (z-score) (Man(a1-2)Man(a1-3)Man): -0.822
glycan array binding signal (z-score) [20]: -0.828
glycan array binding signal (z-score) [21]: -0.841
glycan array binding signal (z-score) [22]: -0.64
glycan array binding signal (z-score) [23]: -0.563
glycan array binding signal (z-score) [24]: -0.844
glycan array binding signal (z-score) [25]: -0.72
glycan array binding signal (z-score) (Man(a1-3)[Man(a1-6)]Man): -0.752
glycan array binding signal (z-score) [26]: 3.49
